The full ranking holds about 33,000 sequences; the median of “E-score (-0.5 to 0.5)” is about -0.0034, and the highest 2% start at about 0.25. The list shows a part of the results.
molecular target: T1, Yap3 (UniProt P38749); assay: PBM E-score (8-mer binding enrichment) (E-score (-0.5 to 0.5)); higher = stronger / more preferred TF binding; settings: protein concentration: 100 nM; construct: GST-full length
T1 sequence: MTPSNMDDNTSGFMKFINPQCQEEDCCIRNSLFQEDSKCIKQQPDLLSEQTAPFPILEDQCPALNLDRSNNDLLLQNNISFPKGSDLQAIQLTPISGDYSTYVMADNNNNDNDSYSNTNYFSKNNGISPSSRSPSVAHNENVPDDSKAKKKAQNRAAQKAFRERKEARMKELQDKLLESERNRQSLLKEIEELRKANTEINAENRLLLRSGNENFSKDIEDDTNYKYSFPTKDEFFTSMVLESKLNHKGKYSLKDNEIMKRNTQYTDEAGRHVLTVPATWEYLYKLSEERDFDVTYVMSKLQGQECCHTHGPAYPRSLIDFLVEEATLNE
How it was run: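 Using PURExpress in vitro transcription/translation, GST-tagged yeast transcription factors were made in full-length or DNA-binding-domain form. These were applied at about 100-200 nM to double-stranded universal all-10-mer Agilent arrays, and bound protein was detected with fluorescent anti-GST. Scans were normalised with masliner before the Universal PBM Analysis Suite assigned E-scores to ungapped eight-base words pooled with their reverse complements.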

| Sequence | PBM E-score |
| --- | --- |
| ACCAGCCA | -0.203 |
| CACGTACC | 0.0369 |
| CCGTCGGA | -0.0293 |
| GCACTAGC | -0.087 |
| CCGCCCTC | -0.188 |
| GACCAATA | 0.142 |
| AGTGCCAT | -0.101 |
| GGCTGCTA | -0.15 |
| CTAGCTGC | -0.275 |
| ACCATGCT | 0.0204 |
| CAAGTTTC | 0.0467 |
| GACTGACC | -0.291 |
| ACCCACAA | 0.21 |
| TCCATTCA | 0.105 |
| CAACTCGG | 0.00157 |
| AGAGCAGC | -0.166 |
| TAAAATGA | 0.23 |
| CCAGTGGC | -0.168 |
| CTATTACC | -0.0641 |
| ACGGGTAC | -0.0155 |
| GGGCTGAC | -0.0608 |
| AAGTAGAG | -0.0212 |
| AGCTTCTA | -0.1 |
| AATAAGTG | 0.164 |
| ACACATCT | 0.00363 |

| Sequence | PBM E-score |
| --- | --- |
| CCCACTAA | 0.0778 |
| AAGGTCGG | -0.12 |
| ATGACCCC | -0.116 |
| TACCAGAA | 0.168 |
| AGAAATGA | 0.0784 |
| ACCGACTC | 0.0227 |
| CGTTCGAC | -0.105 |
| ATTCAATG | 0.123 |
| AAATGGCT | 0.102 |
| AAGGTTAC | 0.0766 |
| CTTGTACC | 0.0474 |
| GCTTTCCC | -0.175 |
| CGGGTGTA | -0.0717 |
| TACAGCGA | -0.0354 |
| TGCATGCA | 0.0727 |
| AGCTCGTA | 0.00077 |
| ATCGTCTC | 0.0144 |
| ACTACTAC | 0.0925 |
| CCCTAGCC | -0.156 |
| CTTTAGGC | -0.187 |
| ACGTACAA | -0.0101 |
| CGTGGCAC | -0.201 |
| CCCAGCTC | -0.117 |
| GAATCCTC | -0.231 |
| CAGAGTCC | -0.0676 |

Shown in CSV form: part of the list above.
Sequence,PBM E-score
GCTTTCCC,-0.175
CGGGTGTA,-0.0717

Carrying on.

| Sequence | PBM E-score |
| --- | --- |
| ATGGGAGG | -0.0823 |
| ATGACGCA | 0.242 |
| CTCAACGA | -0.116 |
| GCCCGGCA | -0.236 |
| ACTACATG | 0.169 |
| ATTTCATA | 0.239 |
| CGCGGCAA | 0.0359 |
| GTACTTGA | -0.0479 |
| CCTCGTAG | -0.00114 |
| ACAAAGAG | -0.0685 |
| CAGTCGGC | -0.142 |
| CGGATACG | -0.0544 |
| ATCTACGG | 0.0515 |
| GTCAGGCA | 0.00699 |
| AGCTCACT | -0.136 |
| CCAGCCAA | -0.108 |
| CGTGTTGA | 0.0539 |
| CTTAACGA | 0.0474 |
| AGCTATCG | -0.116 |
| AGTTCGTG | -0.0413 |
| CGTTGCTA | 0.0356 |
| TCAATGAA | 0.152 |
| AGACATAG | 0.106 |
| ATTGCGCC | -0.0487 |
| AGCGGCTA | 0.00707 |

Given as tab-separated lines: part of the list above.
Sequence	PBM E-score
CGGATACG	-0.0544
ATCTACGG	0.0515
GTCAGGCA	0.00699
AGCTCACT	-0.136
CCAGCCAA	-0.108
CGTGTTGA	0.0539

(next part)

| Sequence | PBM E-score |
| --- | --- |
| CAGTCAAG | 0.00536 |
| GCACCTAC | -0.232 |
| TAGACCAA | 0.111 |
| GGATCCCA | -0.17 |
| CTATGTGA | 0.0318 |
| CGAACATA | 0.185 |
| AGAACACA | 0.0259 |
| AGGTTAGC | -0.136 |
| AAAAAATC | 0.205 |
| CAGTGATG | 0.0336 |
| ACCTTCTC | 0.106 |
| ACCTGCCG | -0.132 |
| CCGCTGAG | -0.0958 |
| GGGGGGAC | -0.471 |
| ACTTGGAC | 0.0823 |
| AGTTGCCC | -0.089 |
| ACATTGAT | 0.164 |
| AGCCCACC | -0.25 |
| GGGAAAAA | 0.215 |
| ATCTGTGC | -0.106 |
| ACAGCGCG | 0.0329 |
| CGAGGAGA | -0.133 |
| AAGTCAGT | 0.103 |
| AGTAGATA | 0.273 |
| AGTAATGA | 0.208 |

| Sequence | PBM E-score |
| --- | --- |
| CGCGCCTC | -0.0504 |
| GCCCGACC | -0.164 |
| AAGGCAAG | -0.122 |
| AGGAAGTC | -0.116 |
| GCACGTGC | 0.0341 |
| GCTGGAAC | -0.149 |
| ACACCAAA | 0.161 |
| AGGTAACC | -0.0195 |
| CGGATTCC | -0.0288 |
| AAGCACGA | 0.114 |
| CACGCCAC | -0.174 |
| CAGAGGTC | -0.143 |
| GAGGGCGA | -0.298 |
| CTGATTCC | -0.117 |
| GCATTTAC | 0.0455 |
| AATAGTTG | 0.267 |
| CCCGATCC | -0.199 |
| CGTCACGC | -0.0139 |
| AAAACAAA | 0.242 |
| TGGGTAAA | -0.0431 |
| CCAAACGC | 0.0129 |
| ACGTCTCC | 0.00491 |
| GAGAAATC | 0.209 |
| GACTCCGA | 0.0169 |
| AATGGGAG | -0.0456 |

| Sequence | PBM E-score |
| --- | --- |
| ACGTTGTG | -0.0771 |
| CGGCGACA | -0.12 |
| CTTCAGCA | -0.0276 |
| AAGACTAG | -0.256 |
| GTCTTGAA | 0.0256 |
| AAGCCCGT | -0.204 |
| GCCGACAA | -0.0608 |
| ATCTTTGA | 0.00662 |
| GCACAGCC | -0.197 |
| ACCCGATG | 0.143 |
| TAAAAACA | 0.246 |
| ATTCTATC | 0.0809 |
| AGGACACC | -0.156 |
| AATAGCAG | 0.026 |
| AATCGGTG | -0.0385 |
| ACCTCGAC | -0.0271 |
| CTAGGGTA | -0.167 |
| GTTCCAAA | 0.0925 |
| GATCATGC | -0.0872 |
| AATAAACA | 0.245 |
| AGGTGGGA | -0.204 |
| GGCATATA | 0.268 |
| ACCGCTGA | 0.0105 |
| AATTATAT | 0.213 |
| AAAGTGGG | 0.149 |

3 neighbouring records from above:

| Sequence | PBM E-score |
| --- | --- |
| AATCGGTG | -0.0385 |
| ACCTCGAC | -0.0271 |
| CTAGGGTA | -0.167 |

More results:

| Sequence | PBM E-score |
| --- | --- |
| CAGCTAGC | -0.177 |
| CGCGCGAG | 0.0248 |
| AGAACAAA | 0.291 |
| GCTCTATA | -0.108 |
| AGTCCTGA | -0.099 |
| TTTAGAAA | 0.16 |
| CGATCTCC | -0.125 |
| CGGTTTAC | -0.0713 |
| CTGACTGA | -0.0763 |
| AATGGACT | -0.00565 |
| CGTAACCA | 0.17 |
| CCTTCCCC | -0.253 |
| CGGAACCG | -0.136 |
| AAACGTTA | 0.179 |
| CCAAGGGC | -0.27 |
| ACACCAGA | 0.11 |
| GACCTGAA | 0.0077 |
| CTAATCTC | 0.134 |
| TCAGCTAA | 0.0752 |
| AATGGGAT | -0.0702 |
| CACGAGAG | -0.138 |
| GATACATA | 0.214 |
